Results are given in words; binding and its absence hold for the method and conditions named. Binding seen in cells or lysates may run through a third protein. Some binding calls cover weakened binding; strength is not graded here. Each block holds one substance with its values, some of them ahead of it.
Columns and labels:
[1] = target: ubiquitin-specific protease 11 (USP11), endogenous (human (endogenous in HCT116)) (UniProt P51784); experiment: co-IP; endogenous co-IP from HCT116 lysate with anti-USP11 or anti-VCP antibody (IgG as control), 4 °C overnight, protein A/G magnetic beads, immunoblot with anti-VCP or anti-USP11
[2] = target: Myc-VCP (valosin-containing protein) (UniProt P55072); experiment: co-IP; exogenous reciprocal co-IP: Flag-USP11 and Myc-VCP co-transfected into HEK293T; lysate (300 ug, IP lysis buffer with protease inhibitors) with 1-2 ug anti-Flag or anti-Myc antibody at 4 °C overnight, protein A/G magnetic beads 1 h at 4 °C, immunoblot
[3] = target: Flag-USP11 (ubiquitin-specific protease 11) (UniProt P51784); experiment: as above

The chains behind the UniProt entries cited, without tags or fusion partners.
UniProt P51784: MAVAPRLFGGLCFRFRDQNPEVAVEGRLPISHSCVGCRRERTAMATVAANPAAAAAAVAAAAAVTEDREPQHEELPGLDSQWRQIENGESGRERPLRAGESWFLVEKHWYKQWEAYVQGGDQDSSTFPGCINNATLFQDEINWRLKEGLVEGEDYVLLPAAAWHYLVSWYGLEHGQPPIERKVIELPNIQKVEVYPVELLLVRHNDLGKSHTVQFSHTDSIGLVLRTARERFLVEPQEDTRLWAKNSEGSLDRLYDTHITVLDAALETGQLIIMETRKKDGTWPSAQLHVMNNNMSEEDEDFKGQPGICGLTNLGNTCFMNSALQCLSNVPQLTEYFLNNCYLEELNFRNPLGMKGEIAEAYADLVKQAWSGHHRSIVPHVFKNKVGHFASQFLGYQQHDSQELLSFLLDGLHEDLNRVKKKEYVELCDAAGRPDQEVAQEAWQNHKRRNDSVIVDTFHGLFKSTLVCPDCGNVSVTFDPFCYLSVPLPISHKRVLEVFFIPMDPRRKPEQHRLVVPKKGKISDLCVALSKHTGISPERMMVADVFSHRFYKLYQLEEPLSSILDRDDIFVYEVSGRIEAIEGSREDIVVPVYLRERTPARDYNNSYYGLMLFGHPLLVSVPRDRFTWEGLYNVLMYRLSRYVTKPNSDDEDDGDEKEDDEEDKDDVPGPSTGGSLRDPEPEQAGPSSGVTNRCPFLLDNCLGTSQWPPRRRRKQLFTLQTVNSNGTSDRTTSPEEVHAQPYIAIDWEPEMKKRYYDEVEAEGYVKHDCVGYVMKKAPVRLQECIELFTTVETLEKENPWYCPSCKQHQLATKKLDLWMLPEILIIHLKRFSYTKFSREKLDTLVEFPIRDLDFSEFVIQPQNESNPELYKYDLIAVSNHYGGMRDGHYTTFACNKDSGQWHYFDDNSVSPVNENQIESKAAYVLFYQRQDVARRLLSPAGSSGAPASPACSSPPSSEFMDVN

- binding [1]: binds
Substance: valosin-containing protein (VCP), endogenous (from UniProt P55072 1-806) (enzyme)

- binding [2]: binds
Substance: Flag-USP11 (ubiquitin-specific protease 11) (from UniProt P51784 1-963) (enzyme)

- binding [3]: binds
Substance: Myc-VCP (valosin-containing protein) (from UniProt P55072 1-806) (enzyme)

Source: article PMC7974880
